The list shows a part of the results.
Assays:
Assay in all cases: log2 fold change, soluble protein after heating vs DMSO (PISA); higher = thermal stabilisation; K562 cells, 10 uM, 30 min; active = over 0.2 and 3.5 SD of the protein, either way, in both replicates (recomputed)
bafetinib = compound: Cc1ccc(NC(=O)c2ccc(CN3CC[C@H](N(C)C)C3)c(C(F)(F)F)c2)cc1Nc1nccc(-c2cncnc2)n1 [bafetinib]
In short: (§1)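 K562 cells at 2×10^6 cells/mL were treated for 30 min with 10 μM compound, and aliquots were heated for 3 min over 48°C-58°C before pooling. Extraction used PBS with 0.5% NP-40 at 4°C, and soluble protein was the supernatant after 21,000xg for 90 min, measured by TMTpro 16plex LC-MS/MS with channel sums equalised. Thermal stability values, relative to control samples and from duplicates, are log2 fold changes.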

The chains behind the UniProt entries cited, without tags or fusion partners. Where a name states a change or a piece, a line headed by the entry shows the natural chain unless it says otherwise.
UniProt Q86SZ2: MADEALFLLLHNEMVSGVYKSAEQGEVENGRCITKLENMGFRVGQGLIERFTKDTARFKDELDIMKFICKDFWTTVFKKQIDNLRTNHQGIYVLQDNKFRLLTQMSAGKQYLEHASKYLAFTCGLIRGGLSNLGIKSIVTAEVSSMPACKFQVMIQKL
UniProt O43715: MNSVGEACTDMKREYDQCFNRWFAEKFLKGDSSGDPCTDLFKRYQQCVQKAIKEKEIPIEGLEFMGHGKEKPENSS
UniProt Q9UL33, whole entry, looked up: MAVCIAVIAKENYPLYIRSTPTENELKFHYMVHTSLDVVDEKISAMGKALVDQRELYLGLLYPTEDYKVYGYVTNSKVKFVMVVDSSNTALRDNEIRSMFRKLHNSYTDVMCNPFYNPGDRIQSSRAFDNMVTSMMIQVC
UniProt Q13625: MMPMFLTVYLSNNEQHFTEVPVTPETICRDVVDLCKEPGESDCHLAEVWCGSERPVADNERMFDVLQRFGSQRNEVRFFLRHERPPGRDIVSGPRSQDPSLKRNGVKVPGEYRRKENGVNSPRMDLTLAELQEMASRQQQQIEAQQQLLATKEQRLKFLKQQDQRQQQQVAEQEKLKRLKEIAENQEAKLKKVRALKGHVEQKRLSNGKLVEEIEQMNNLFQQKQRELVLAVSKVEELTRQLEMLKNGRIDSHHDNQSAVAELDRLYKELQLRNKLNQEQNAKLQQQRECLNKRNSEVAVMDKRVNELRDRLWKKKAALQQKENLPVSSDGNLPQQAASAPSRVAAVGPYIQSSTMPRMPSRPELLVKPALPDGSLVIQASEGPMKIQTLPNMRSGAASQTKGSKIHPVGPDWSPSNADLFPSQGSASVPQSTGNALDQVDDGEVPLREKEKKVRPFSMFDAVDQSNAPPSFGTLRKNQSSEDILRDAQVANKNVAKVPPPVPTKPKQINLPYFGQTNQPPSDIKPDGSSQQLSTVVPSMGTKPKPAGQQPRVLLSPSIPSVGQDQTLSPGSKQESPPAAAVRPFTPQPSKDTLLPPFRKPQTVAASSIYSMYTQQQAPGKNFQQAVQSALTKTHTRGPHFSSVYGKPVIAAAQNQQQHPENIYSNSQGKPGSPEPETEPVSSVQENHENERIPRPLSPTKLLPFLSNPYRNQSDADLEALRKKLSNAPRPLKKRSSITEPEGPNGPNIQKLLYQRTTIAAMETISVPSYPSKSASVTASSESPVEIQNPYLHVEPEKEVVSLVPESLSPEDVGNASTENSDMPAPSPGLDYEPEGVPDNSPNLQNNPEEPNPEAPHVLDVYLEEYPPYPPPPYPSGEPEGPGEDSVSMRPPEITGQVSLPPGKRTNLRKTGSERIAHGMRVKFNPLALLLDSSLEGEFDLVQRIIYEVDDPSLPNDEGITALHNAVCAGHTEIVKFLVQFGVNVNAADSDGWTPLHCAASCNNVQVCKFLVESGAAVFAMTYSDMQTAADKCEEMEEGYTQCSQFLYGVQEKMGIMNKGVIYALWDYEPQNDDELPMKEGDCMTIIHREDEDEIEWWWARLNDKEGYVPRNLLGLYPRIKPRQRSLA
UniProt O60784, whole entry, looked up: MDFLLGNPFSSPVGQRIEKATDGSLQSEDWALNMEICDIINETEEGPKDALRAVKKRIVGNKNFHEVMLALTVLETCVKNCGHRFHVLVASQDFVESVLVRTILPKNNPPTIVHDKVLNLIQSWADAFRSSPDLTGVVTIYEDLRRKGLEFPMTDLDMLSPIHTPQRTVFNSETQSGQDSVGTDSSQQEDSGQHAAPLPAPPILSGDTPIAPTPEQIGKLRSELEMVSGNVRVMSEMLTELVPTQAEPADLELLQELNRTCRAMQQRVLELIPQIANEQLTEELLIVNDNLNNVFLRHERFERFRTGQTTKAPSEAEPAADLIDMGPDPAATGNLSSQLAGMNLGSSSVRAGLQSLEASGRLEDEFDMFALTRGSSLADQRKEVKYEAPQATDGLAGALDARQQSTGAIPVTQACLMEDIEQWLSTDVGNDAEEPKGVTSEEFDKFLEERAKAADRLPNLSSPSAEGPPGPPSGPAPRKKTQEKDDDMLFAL
UniProt Q8IUR0, whole entry, looked up: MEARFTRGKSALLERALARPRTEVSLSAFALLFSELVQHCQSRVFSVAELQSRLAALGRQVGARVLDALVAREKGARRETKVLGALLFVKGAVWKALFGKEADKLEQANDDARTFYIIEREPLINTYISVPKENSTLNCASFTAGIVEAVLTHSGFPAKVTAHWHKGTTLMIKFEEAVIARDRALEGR
UniProt Q7Z2T5: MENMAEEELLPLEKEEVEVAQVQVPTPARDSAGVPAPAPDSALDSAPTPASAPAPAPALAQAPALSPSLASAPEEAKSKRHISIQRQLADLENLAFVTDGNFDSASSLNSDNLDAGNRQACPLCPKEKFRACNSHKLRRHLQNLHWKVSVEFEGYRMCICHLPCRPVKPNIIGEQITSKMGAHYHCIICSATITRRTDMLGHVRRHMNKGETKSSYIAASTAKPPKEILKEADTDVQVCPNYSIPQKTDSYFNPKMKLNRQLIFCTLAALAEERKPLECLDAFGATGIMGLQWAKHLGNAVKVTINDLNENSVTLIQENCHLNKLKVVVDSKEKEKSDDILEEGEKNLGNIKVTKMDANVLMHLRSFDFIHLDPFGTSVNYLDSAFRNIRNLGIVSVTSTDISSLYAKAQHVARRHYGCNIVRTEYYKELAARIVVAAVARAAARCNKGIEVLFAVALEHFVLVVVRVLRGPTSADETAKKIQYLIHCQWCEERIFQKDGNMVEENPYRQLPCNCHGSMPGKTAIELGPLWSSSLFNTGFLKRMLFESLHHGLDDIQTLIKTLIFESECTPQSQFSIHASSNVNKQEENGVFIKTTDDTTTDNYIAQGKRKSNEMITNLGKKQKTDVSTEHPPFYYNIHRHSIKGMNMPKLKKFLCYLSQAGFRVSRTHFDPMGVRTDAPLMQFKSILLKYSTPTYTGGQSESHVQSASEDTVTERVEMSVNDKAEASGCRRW
UniProt Q9Y5S1: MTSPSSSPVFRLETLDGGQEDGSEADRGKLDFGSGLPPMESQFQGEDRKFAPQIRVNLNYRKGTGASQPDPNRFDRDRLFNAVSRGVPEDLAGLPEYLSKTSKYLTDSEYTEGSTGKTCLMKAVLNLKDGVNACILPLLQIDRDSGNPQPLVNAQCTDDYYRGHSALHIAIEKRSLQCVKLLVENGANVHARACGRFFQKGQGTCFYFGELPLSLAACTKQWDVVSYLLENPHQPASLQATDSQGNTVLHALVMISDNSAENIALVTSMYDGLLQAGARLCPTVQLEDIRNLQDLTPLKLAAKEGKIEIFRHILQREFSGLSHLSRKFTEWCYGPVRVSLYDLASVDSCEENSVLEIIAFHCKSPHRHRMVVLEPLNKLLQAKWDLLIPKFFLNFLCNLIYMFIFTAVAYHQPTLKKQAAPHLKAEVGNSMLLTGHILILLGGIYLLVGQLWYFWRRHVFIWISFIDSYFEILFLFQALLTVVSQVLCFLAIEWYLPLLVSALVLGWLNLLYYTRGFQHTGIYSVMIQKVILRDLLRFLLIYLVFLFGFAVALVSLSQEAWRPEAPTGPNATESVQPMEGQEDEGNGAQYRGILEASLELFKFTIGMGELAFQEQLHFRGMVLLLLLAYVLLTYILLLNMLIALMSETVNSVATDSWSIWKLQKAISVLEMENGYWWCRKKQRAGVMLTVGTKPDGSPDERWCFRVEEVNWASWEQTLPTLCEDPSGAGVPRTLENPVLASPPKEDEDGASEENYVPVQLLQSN
UniProt Q8WWH5: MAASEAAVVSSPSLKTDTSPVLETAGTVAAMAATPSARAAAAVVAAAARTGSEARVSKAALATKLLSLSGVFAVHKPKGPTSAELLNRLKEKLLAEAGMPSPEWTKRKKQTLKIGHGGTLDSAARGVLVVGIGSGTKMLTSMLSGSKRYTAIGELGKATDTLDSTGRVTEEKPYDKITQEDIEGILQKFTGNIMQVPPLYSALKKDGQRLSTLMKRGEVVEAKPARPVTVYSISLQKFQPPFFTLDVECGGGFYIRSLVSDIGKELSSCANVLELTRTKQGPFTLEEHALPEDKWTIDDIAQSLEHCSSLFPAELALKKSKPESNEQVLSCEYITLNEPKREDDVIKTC
UniProt Q7Z392: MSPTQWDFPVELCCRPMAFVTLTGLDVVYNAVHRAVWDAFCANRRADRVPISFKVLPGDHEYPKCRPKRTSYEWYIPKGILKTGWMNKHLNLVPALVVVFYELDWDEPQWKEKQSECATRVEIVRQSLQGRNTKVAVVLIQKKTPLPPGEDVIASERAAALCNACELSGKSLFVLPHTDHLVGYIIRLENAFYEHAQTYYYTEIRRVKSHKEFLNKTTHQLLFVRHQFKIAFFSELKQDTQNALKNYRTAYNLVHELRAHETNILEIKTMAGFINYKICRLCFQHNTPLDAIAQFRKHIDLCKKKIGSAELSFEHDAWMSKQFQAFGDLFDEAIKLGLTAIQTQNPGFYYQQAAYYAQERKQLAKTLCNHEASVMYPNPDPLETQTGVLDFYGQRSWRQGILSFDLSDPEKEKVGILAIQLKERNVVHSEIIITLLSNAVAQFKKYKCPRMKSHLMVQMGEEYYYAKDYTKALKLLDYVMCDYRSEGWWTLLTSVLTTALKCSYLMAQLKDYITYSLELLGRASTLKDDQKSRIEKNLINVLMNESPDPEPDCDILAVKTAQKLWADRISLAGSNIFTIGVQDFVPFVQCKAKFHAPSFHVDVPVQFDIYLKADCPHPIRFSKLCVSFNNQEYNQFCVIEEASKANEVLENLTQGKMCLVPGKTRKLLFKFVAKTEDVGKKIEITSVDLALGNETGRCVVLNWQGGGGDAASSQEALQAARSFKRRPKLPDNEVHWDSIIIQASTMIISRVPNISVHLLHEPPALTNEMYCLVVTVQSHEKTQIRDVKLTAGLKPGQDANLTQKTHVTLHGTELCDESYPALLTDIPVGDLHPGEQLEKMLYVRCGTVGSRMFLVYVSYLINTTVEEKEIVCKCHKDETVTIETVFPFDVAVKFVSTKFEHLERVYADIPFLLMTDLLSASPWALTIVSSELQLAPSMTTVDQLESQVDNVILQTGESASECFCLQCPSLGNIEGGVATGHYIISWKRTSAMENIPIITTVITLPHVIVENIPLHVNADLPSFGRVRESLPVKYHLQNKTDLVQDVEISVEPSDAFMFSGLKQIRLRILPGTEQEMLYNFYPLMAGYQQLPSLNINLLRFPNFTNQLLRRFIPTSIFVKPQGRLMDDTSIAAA
UniProt Q53FA7: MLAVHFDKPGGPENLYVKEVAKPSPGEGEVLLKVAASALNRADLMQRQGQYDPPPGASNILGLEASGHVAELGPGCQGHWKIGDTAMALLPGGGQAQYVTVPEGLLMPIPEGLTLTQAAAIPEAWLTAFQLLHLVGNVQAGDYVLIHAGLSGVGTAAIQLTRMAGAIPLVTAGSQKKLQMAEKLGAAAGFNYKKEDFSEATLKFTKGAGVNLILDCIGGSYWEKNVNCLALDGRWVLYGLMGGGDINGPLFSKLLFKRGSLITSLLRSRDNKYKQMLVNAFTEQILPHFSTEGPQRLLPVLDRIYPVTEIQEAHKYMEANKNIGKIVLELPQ
UniProt Q12931: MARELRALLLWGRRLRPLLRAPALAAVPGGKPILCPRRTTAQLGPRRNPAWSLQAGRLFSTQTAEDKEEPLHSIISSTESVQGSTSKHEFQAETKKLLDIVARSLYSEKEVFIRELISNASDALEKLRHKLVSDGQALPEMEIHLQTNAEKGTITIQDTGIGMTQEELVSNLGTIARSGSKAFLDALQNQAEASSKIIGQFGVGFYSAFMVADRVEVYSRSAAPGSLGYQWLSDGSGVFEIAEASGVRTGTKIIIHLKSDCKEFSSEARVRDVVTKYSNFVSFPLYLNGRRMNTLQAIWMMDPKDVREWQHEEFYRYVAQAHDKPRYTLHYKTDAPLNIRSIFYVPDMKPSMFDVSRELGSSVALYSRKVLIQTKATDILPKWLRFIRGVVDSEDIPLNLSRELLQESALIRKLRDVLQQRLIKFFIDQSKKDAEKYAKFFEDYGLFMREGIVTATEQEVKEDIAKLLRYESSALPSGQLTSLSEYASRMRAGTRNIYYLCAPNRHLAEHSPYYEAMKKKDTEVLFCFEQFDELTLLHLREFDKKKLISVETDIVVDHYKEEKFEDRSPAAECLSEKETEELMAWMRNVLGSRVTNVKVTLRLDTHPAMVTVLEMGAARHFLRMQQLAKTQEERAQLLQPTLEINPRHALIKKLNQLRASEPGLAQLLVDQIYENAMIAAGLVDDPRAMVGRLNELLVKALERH
UniProt Q8N4H5: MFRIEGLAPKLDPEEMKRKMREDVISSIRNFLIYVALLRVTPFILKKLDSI
UniProt P09493, whole entry, looked up: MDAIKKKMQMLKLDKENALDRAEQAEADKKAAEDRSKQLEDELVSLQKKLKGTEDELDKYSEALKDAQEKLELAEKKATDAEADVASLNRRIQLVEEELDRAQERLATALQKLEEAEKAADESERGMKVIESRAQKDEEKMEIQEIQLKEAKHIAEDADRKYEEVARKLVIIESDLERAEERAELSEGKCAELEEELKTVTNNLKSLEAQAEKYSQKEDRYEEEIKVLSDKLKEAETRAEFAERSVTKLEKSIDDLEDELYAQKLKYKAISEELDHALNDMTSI

[1] = compound: Cc1cccc(CC(=O)N2CCc3c2ccc(-c2cn(C)c4ncnc(N)c24)c3F)n1
In short: as §1

nilotinib = compound: Cc1cn(-c2cc(NC(=O)c3ccc(C)c(Nc4nccc(-c5cccnc5)n4)c3)cc(C(F)(F)F)c2)cn1 [nilotinib]
In short: as §1

[2] = compound: Cc1nc(Nc2n[nH]c3c2CN(C(=O)N[C@H](CN(C)C)c2ccccc2)C3(C)C)c2sccc2n1
In short: as §1

dasatinib = compound: Cc1nc(Nc2ncc(C(=O)Nc3c(C)cccc3Cl)s2)cc(N2CCN(CCO)CC2)n1 [dasatinib]
In short: as §1

[3] = compound: Cc1ncc(-c2ccnc(Nc3ccc(S(C)(=O)=O)cc3)n2)n1C(C)C
In short: as §1

[4] = compound: Cn1cc(-c2ccc3c(c2)CCN3C(=O)Cc2cccc(C(F)(F)F)c2)c2c(N)ncnc21
In short: as §1

[5] = compound: Cn1cc(-c2ccc3nnc(C(F)(F)c4ccc5ncccc5c4)n3n2)cn1
In short: as §1

tipifarnib = compound: Cn1cncc1[C@@](N)(c1ccc(Cl)cc1)c1ccc2c(c1)c(-c1cccc(Cl)c1)cc(=O)n2C [tipifarnib]
In short: as §1

mubritinib = compound: FC(F)(F)c1ccc(/C=C/c2nc(COc3ccc(CCCCn4ccnn4)cc3)co2)cc1 [mubritinib]
In short: as §1

Measured: log2 fold change

TRAPPC8 (UniProt Q9Y2L5)
inactive: bafetinib -0.037 | [1] 0.044 | nilotinib -0.055 | [2] -0.04 | dasatinib -0.133 | [3] 0.059 | [4] 0 | [5] 0.004 | tipifarnib -0.013 | mubritinib 0.045

TRMT10C (UniProt Q7L0Y3)
inactive: bafetinib -0.044 | [1] 0.107 | nilotinib -0.043 | [2] -0.066 | dasatinib -0.181 | [3] 0.012 | [4] 0.046 | [5] 0.038 | tipifarnib -0.037 | mubritinib 0.153

TRAPPC6B (UniProt Q86SZ2)
inactive: bafetinib -0.005 | [1] -0.024 | nilotinib -0.008 | [2] -0.027 | dasatinib -0.042 | [3] 0.021 | [4] 0.024 | [5] 0.04 | tipifarnib -0.028 | mubritinib 0.045

TRIAP1 (UniProt O43715)
inactive: bafetinib -0.152 | [1] -0.079 | nilotinib 0.04 | [2] -0.027 | dasatinib 0.104 | [3] -0.033 | [4] 0.122 | [5] 0.275 | tipifarnib 0.04 | mubritinib -0.008

TRAPPC2 isoform 3 (UniProt P0DI81)
inactive: bafetinib -0.05 | [1] -0.066 | nilotinib 0.017 | [2] -0.022 | dasatinib -0.021 | [3] -0.076 | [4] 0.001 | [5] -0.031 | tipifarnib -0.041 | mubritinib -0.007

TRAPPC2L (UniProt Q9UL33)
inactive: bafetinib -0.042 | [1] -0.02 | nilotinib -0.062 | [2] -0.068 | dasatinib -0.118 | [3] 0.064 | [4] -0.041 | [5] -0.111 | tipifarnib -0.111 | mubritinib 0.013

TP53BP2 isoform 3 (UniProt Q13625)
inactive: bafetinib 0.038 | [1] 0.109 | nilotinib 0.161 | [2] 0.022 | dasatinib -0.237 | [3] 0.137 | [4] 0.086 | [5] -0.037 | tipifarnib -0.04

TOM1 isoform 2 (UniProt O60784)
inactive: bafetinib -0.122 | [1] 0.026 | nilotinib -0.055 | [2] -0.104 | dasatinib -0.034 | [3] 0.116 | [4] -0.015 | [5] -0.012 | tipifarnib 0.022 | mubritinib -0.033

TRIM44 (UniProt Q96DX7)
inactive: bafetinib -0.033 | [1] -0.01 | nilotinib -0.024 | [2] -0.023 | dasatinib -0.029 | [3] 0.026 | [4] 0.002 | [5] 0.051 | tipifarnib -0.041 | mubritinib 0.065

TNFRSF8 (UniProt P28908)
inactive: bafetinib 0.01 | [1] -0.089 | nilotinib 0.074 | [2] -0.049 | dasatinib 0.032 | [3] 0.043 | [4] 0.014 | [5] 0.032 | tipifarnib 0.042 | mubritinib 0.069

TRAPPC5 (UniProt Q8IUR0)
inactive: bafetinib 0.02 | [1] 0.076 | nilotinib -0.061 | [2] -0.071 | dasatinib -0.101 | [3] -0.013 | [4] 0.066 | [5] -0.029 | tipifarnib -0.044 | mubritinib 0.105

TPD52L2 isoform 7 (UniProt O43399)
inactive: bafetinib -0.075 | [1] -0.043 | nilotinib 0.012 | [2] 0.012 | dasatinib 0.065 | [3] -0.011 | [4] -0.004 | [5] -0.03 | tipifarnib 0.005 | mubritinib 0.037

TRMT1L (UniProt Q7Z2T5)
inactive: bafetinib 0.236 | [1] 0.035 | nilotinib -0.035 | [2] 0.15 | dasatinib 0.124 | [3] -0.016 | [4] -0.328 | [5] -0.193 | tipifarnib 0.158 | mubritinib -0.107

TRMT2A (UniProt Q8IZ69)
inactive: bafetinib 0.059 | [1] -0.001 | nilotinib 0.021 | [2] -0.048 | dasatinib -0.019 | [3] -0.064 | [4] 0 | [5] 0.009 | tipifarnib 0.03 | mubritinib -0.005

TRPV2 (UniProt Q9Y5S1)
inactive: bafetinib -0.178 | [1] 0.023 | nilotinib -0.039 | [2] -0.005 | dasatinib -0.022 | [3] 0.007 | [4] 0.025 | [5] 0.008 | tipifarnib -0.061 | mubritinib 0.003

TNPO3 (UniProt Q9Y5L0)
inactive: bafetinib -0.057 | [1] 0.041 | nilotinib -0.052 | [2] -0.123 | dasatinib -0.103 | [3] -0.028 | [4] -0.001 | [5] -0.014 | tipifarnib -0.121 | mubritinib 0.061

TRUB1 (UniProt Q8WWH5)
inactive: bafetinib -0.035 | [1] 0.022 | nilotinib -0.038 | [2] -0.051 | dasatinib -0.022 | [3] -0.005 | [4] 0.033 | [5] 0.032 | tipifarnib -0.02 | mubritinib 0.004

TRMT2B (UniProt Q96GJ1)
inactive: bafetinib 0.165 | [1] -0.027 | nilotinib -0.001 | [2] -0.003 | dasatinib -0.134 | [3] 0.129 | [4] -0.016 | [5] -0.019 | tipifarnib 0.139 | mubritinib 0.016

TOR3A (UniProt Q9H497)
inactive: bafetinib -0.094 | [1] 0.025 | nilotinib -0.17 | [2] 0.02 | dasatinib -0.049 | [3] -0.073 | [4] -0.035 | [5] 0.046 | tipifarnib 0.017 | mubritinib -0.062

TRAPPC11 (UniProt Q7Z392)
inactive: bafetinib 0.065 | [1] 0.05 | nilotinib -0.098 | [2] -0.129 | dasatinib -0.159 | [3] 0.01 | [4] -0.04 | [5] -0.03 | tipifarnib -0.06 | mubritinib 0.04

TPM4, A0A2R8Y5V9
inactive: bafetinib -0.052 | [1] -0.017 | nilotinib 0.009 | [2] -0.005 | dasatinib 0.078 | [3] -0.024 | [4] -0.003 | [5] -0.042 | tipifarnib 0.018 | mubritinib 0.044

TRAPPC3 (UniProt O43617)
inactive: bafetinib -0.033 | [1] 0.003 | nilotinib -0.007 | [2] -0.023 | dasatinib -0.021 | [3] -0.001 | [4] 0.025 | [5] 0.041 | tipifarnib -0.047 | mubritinib 0.035

TP53I3 (UniProt Q53FA7)
inactive: bafetinib -0.029 | [1] -0.035 | nilotinib 0.036 | [2] -0.001 | dasatinib 0.049 | [3] 0.016 | [4] -0.042 | [5] 0.044 | tipifarnib 0.08 | mubritinib 0.058

TRAP1 (UniProt Q12931)
inactive: bafetinib -0.064 | [1] -0.002 | nilotinib -0.014 | [2] 0.001 | dasatinib 0 | [3] -0.011 | [4] 0.023 | [5] 0.028 | tipifarnib 0.014 | mubritinib 0.003

TRMT10A (UniProt Q8TBZ6)
inactive: bafetinib 0.006 | [1] -0.022 | nilotinib 0.005 | [2] -0.018 | dasatinib -0.059 | [3] -0.002 | [4] 0.104 | [5] 0.008 | tipifarnib -0.022 | mubritinib 0.05

TOLLIP (UniProt Q9H0E2)
inactive: bafetinib -0.036 | [1] -0.013 | nilotinib 0.053 | [2] -0.047 | dasatinib -0.038 | [3] 0.105 | [4] 0.032 | [5] -0.061 | tipifarnib 0.042 | mubritinib -0.011

TRAF6 (UniProt Q9Y4K3)
inactive: bafetinib -0.028 | [1] 0.04 | nilotinib -0.03 | [2] -0.013 | dasatinib -0.004 | [3] 0.032 | [4] 0.006 | [5] -0.16 | tipifarnib 0.015 | mubritinib 0.037

TPM1 (UniProt H7BYY1)
inactive: bafetinib -0.068 | [1] -0.081 | nilotinib -0.026 | [2] -0.011 | dasatinib 0.035 | [3] -0.019 | [4] -0.065 | [5] 0.071 | tipifarnib -0.003 | mubritinib 0.043

TOMM5 isoform 2 (UniProt Q8N4H5)
inactive: bafetinib -0.141 | [1] -0.114 | nilotinib 0.079 | [2] 0.004 | dasatinib -0.004 | [3] -0.079 | [4] 0.062 | [5] 0.217 | tipifarnib 0.107 | mubritinib 0.038

TPM1 isoform 4 (UniProt P09493)
inactive: bafetinib -0.017 | [1] -0.016 | nilotinib 0.063 | [2] -0.022 | dasatinib 0.01 | [3] -0.005 | [4] 0.034 | [5] 0.004 | tipifarnib -0.008 | mubritinib 0.018

Two records picked at random from the list so far, as already listed:
TRIM44 (UniProt Q96DX7)
inactive: bafetinib -0.033 | [1] -0.01 | nilotinib -0.024 | [2] -0.023 | dasatinib -0.029 | [3] 0.026 | [4] 0.002 | [5] 0.051 | tipifarnib -0.041 | mubritinib 0.065

TOLLIP (UniProt Q9H0E2)
inactive: bafetinib -0.036 | [1] -0.013 | nilotinib 0.053 | [2] -0.047 | dasatinib -0.038 | [3] 0.105 | [4] 0.032 | [5] -0.061 | tipifarnib 0.042 | mubritinib -0.011
